{"source": "paper PMC11331543", "experiment_in_all_cases": "EMSA", "key": {"[1]": {"tested_on": "MBP-CsPHR2 (Camellia sinensis)", "conditions": "LightShift Chemiluminescent EMSA kit, 20 ul, 20 min at room temperature, 6% native polyacrylamide gel, salt and pH not given, recombinant protein, protein details: N-terminal MBP (pET-HMT), label: biotin"}, "[2]": {"tested_on": "MBP-CsPHR1 (Camellia sinensis)", "conditions": "LightShift Chemiluminescent EMSA kit, 20 ul, 20 min at room temperature, 6% native polyacrylamide gel; salt and pH not given; recombinant protein; protein details: N-terminal MBP (pET-HMT); label: biotin"}, "MBP": {"molecular_target": "MBP (UniProt P0AEX9)", "conditions": "LightShift Chemiluminescent EMSA kit, 20 ul, 20 min at room temperature, 6% native polyacrylamide gel; salt and pH not given; protein translated in vitro; protein details: MBP; label: biotin"}, "[3]": {"conditions": "pCold-CsJAZ3 50-150 ng, dose-dependent reduction"}}, "note": "For some of these results: Negatives hold for the conditions tested. For some of these results: Construct, isoform or probe ends are uncertain for at least one entry. For some of these results: A weaker result is weaker than the reference pair of the same experiment. For some of these results: At least one verdict rests on a figure or table, not on a statement of the authors.", "data": [{"sequence": "CCGTTTATATTTTAGGACTCGTTAAGTAGAATATTCACGCAAAAAATAAGATTATC (double strand) [CsMYB5c probe (P1BS)]", "values": [{"measurement": "binding result", "setting": "[1]", "result": "binds"}, {"measurement": "binding result", "setting": "[1]; [3]", "result": "binds more weakly"}, {"measurement": "binding result", "setting": "[2]", "result": "binds"}]}, {"sequence": "TGGTTGTACTAGATTAGACATTGCATATGCAGTGGGAGTGGTTAGTAAAGTAATC (double strand) [CsANR1 probe (P1BS)]", "values": [{"measurement": "binding result", "setting": "[1]", "result": "binds"}, {"measurement": "binding result", "setting": "[1]; [3]", "result": "binds more weakly"}, {"measurement": "binding result", "setting": "MBP", "result": "no binding"}, {"measurement": "binding result", "setting": "[2]", "result": "binds"}]}]}
